Results published in patent US20180030144A1.
Substitutions are numbered along the chain they refer to. No constants are given. Whether binding was seen depends on the method and setting. A result given as binding can be weak or reduced; the word gives no strength.

B1: antibody 6E1 (antibody, human IgG1, V domains shown)
VH: EFQLQQSGPELVKPGASVKVSCKASGYAFTSYNMYWVKQSHGKRLEWIGYIDPYNGGSSYNQKFKGKATLTVDKSSSTAYMHLNNLTSEDSAVYYCARGYNNYKAWFAYWGQGTLVTVSA
VL: SIVMTQTPKFLLVSAGDRVTITCKASQSVTNDVAWYQQKPGQSPKLLIYYASNRYTGVPDRFTGSGYGTDFTFTISTMQAEDLAVYFCQQDYSSLTFGAGTKLELK
B2: antibody 8C7 (antibody, human IgG1, V domains shown)
VH: B1 VH with F2V, T30A, Y35N, R44S, E46D, Q62L, K63T, S77T, N85S, N101G
VL: SIVMTPTPKFLLVSAGDRVTITCKASQSVSNDVAWYQQKPGQSPKLLIYYASTRYTGVPDRFTGSGYGTDFTFTISTVQAEDLAVYFCQQDYSSLTFGAGTKLELKR
B3: antibody 11E1 (antibody, human IgG1, V domains shown)
VH: B1 VH with F2I, R44S, S58T, N85S, N101G
VL: B1 VL with S1D, I2A, M78V
B4: antibody 3C12 (antibody, human IgG1, V domains shown)
VH: QIQLQQSGPELVKPGASVKVSCKASGYAFASYNMNWVKQSHGKSLDWIGYIDPYNGGSSYNLTFKGKATLTVDKSSTTAYMHLNSLTSEDSAVYYCARGYGNYKAWFAYWGQGTLVTVSA
VL: B2 VL with S1D, I2V, P6Q

molecular target: human CD73 expressed at the cell surface (human); assay: flow cytometry titration on MDA-MB-231 cells (endogenous CD73), median of fluorescence

| binding | Binder |
| --- | --- |
| binds | B1 |
| binds | B2 |
| binds | B3 |
| binds | B4 |

molecular target: human CD73 expressed at the cell surface (human); assay: flow cytometry titration on MDA-MB-231 cells

| binding | Binder |
| --- | --- |
| binds | B1 |
| binds | B2 |
| binds | B3 |
| binds | B4 |

molecular target: human CD73 expressed at the cell surface (human); assay: flow cytometry on MDA-MB-231 cells, with or without APCP (Example 4)

| binding | Binder |
| --- | --- |
| binds | B1 |
| binds | B2 |
| binds | B3 |
| binds | B4 |

molecular target: human CD73 expressed at the cell surface (human); assay: flow cytometry titration on HEK293T cells transfected with wild type human CD73, mean of fluorescence

| binding | Binder |
| --- | --- |
| binds | B4 |

molecular target: human CD73 expressed at the cell surface (human); assay: flow cytometry on MDA-MB-231 cells, with or without 200 µM APCP

| binding | Binder |
| --- | --- |
| binds | B1 |
| binds | B2 |
| binds | B3 |
| binds | B4 |

molecular target: cynomolgus CD73 expressed on a recombinant host cell line (cynomolgus); assay: flow cytometry titration on a cynomolgus-CD73-expressing recombinant host cell line, median of fluorescence

| binding | Binder |
| --- | --- |
| binds | B1 |
| binds | B2 |
| binds | B3 |
| binds | B4 |

molecular target: human CD73 expressed at the cell surface (human); assay: flow cytometry titration on cells expressing wild type human CD73

| binding | Binder |
| --- | --- |
| binds | B4 |

molecular target: human CD73 expressed at the cell surface (human); assay: flow cytometry titration on human CD73-expressing recombinant host cells

| binding | Binder |
| --- | --- |
| binds | B1 |
| binds | B2 |
| binds | B3 |
| binds | B4 |

molecular target: human CD73 expressed at the cell surface (human); assay: flow cytometry titration on a human-CD73-expressing recombinant host cell line, median of fluorescence

| binding | Binder |
| --- | --- |
| binds | B1 |
| binds | B2 |
| binds | B3 |
| binds | B4 |

molecular target: cynomolgus CD73 expressed on a recombinant host cell line (cynomolgus); assay: flow cytometry titration on cynomolgus CD73-expressing recombinant host cells

| binding | Binder |
| --- | --- |
| binds | B1 |
| binds | B2 |
| binds | B3 |
| binds | B4 |
